The nature of the assay: IkB Signaling. Particulars: ABC-DLBCL IkBa-CBG/CBR dual luciferase ratio (green luciferase fused to IkBa over red control in OCI-Ly3 lymphoma cells), 4 h. The method, boiled down: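 In this assay, an IκBα–CBG68 fusion accumulates when IKK-driven degradation is blocked; native CBR normalizes for cell number. OCI-Ly3 cells were treated 4 h with compound and doxycycline, then green and red light read after Chroma-Glo addition.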
The mark [1] stands for this setting: measured here: control luc red channel unless noted.

This is one part of the list. These are further read-outs of the screen, such as a control signal, another cell line or another target. No call is given for them. The list favours compounds with an active or inconclusive main result. The note in brackets gives the kind of curve behind each potency; many fits are weak.

In general, AC50 refers to the concentration giving half of the maximal activity seen.

As to `Cc1c(C(=O)NCc2ccc3c(c2)OCO3)oc2ccc(S(=O)(=O)N3CCCC3)cc12`, under setting [1], the AC50 was 10 µM [falling, partial curve].
`CCc1ccc(CNC(=O)CCn2c(=O)c3cccn3c3ccc(F)cc32)cc1`: the AC50 under setting [1] was 39.8 µM [falling, single point].
Same read-out and setting: under `CCOc1ccccc1NC(=O)COc1ccc(S(=O)(=O)NC2CCCCC2)cc1` stands 20 µM [falling, single point]; under `NC(=O)c1oc2ccccc2c1NC(=O)c1nc2ccccc2s1`, 6.31 µM [falling, partial curve]; under `O=C(Nc1ccc(F)c(F)c1)C1CCCN1S(=O)(=O)c1cccc2nsnc12` (centres undefined), 2 µM [rising, partial curve, poor fit].
As to `O=S(=O)(c1ccccc1)c1nc(-c2ccc(F)cc2)oc1N1CCCCCC1`, the concentration at half-maximal activity (AC50) under setting [1] is 39.8 µM [falling, single point].
Turning to `COc1ccc(-c2cc(-c3ccc(OC)cc3)[nH]n2)cc1`, the AC50 under setting [1] was 20 µM [falling, partial curve].
The same measure, in the same setting: under `CCOC(=O)c1ccc(-c2ccc(/C=C(\C#N)C(=O)Nc3ccc(C)cc3OC)o2)cc1` stands 1 µM [falling, full curve].
For the compound `CCCCN1C(=O)C(O)(c2c(C)[nH]c3ccccc23)c2ccccc21` (centres undefined), under setting [1], the AC50 is 15.8 µM [falling, single point].
Same read-out and setting: the value for `COCCNC(=O)Cn1ncc2c(C)n(Cc3ccc(C)cc3)c(C)c2c1=O` was 31.6 µM [falling, single point]; that for `CCOc1ccc(C(=O)c2cn(Cc3ccc(F)cc3)c3ccc(F)cc3c2=O)cc1` was 25.1 µM [falling, partial curve]; that for `Cc1cccc(-n2ncc3c(N4CCCCCC4)ncnc32)c1` was 31.6 µM [falling, partial curve].
On the same count and under the same terms, under `CC(C)(C)C(=O)OC1=CN(Cc2ccccc2)S(=O)(=O)c2ccccc21` stands 15.8 µM [falling, single point]; under `CCOc1ccc(C(=O)c2cn(CC(=O)Nc3cc(OC)ccc3OC)c3cc(OC)c(OC)cc3c2=O)cc1`, 2.51 µM [rising, partial curve].
On the same count and under the same terms, under `COc1ccc(-c2ccc(=O)n(CC(=O)NCCc3ccccc3)n2)cc1` stands 2.51 µM [rising, partial curve]; under `O=C(CN1C(=O)C2(SCC(=O)N2c2ccc(F)cc2)c2ccccc21)NCCc1ccccc1` (centres undefined), 20 µM [falling, single point]; under `CCCCN(CCCC)C(=O)CSc1nnc(-c2cc(OC)c(OC)c(OC)c2)o1`, 25.1 µM [falling, partial curve].
Consider `Cc1cc(C)cc(Nc2cc(C(=O)NCc3ccccc3)c3ccccc3n2)c1`, for which the half-maximal activity concentration (AC50) under setting [1] is 6.31 µM [falling, partial curve].
On the same count and under the same terms, under `Nc1nc(Nc2ccccc2)nc2ccccc12` stands 31.6 µM [falling, single point]; under `Cc1cc(C)c(NC(=O)C(C)n2nnc3sc(-c4ccccc4)cc3c2=O)c(C)c1` (centres undefined), 15.8 µM [falling, single point].
The same measure, in the same setting: the value for `O=c1c2ccccc2nc(SCc2nnc(-c3ccccc3)o2)n1-c1ccccc1` was 3.16 µM [falling, full curve, poor fit]; that for `CC(=O)c1c(C)oc2ccc(N(C(=O)c3ccncc3)S(=O)(=O)c3ccc(C)cc3C)cc12` was 10 µM [falling, partial curve]; that for `COc1ccccc1NC(=O)C1=C(C)Nc2nc(SCc3ccccc3Cl)nn2C1c1ccncc1` (centres undefined) was 31.6 µM [rising, partial curve].
`CCN(CC)S(=O)(=O)c1ccc(C(=O)NCCSc2c(-c3ccc(OC)cc3)[nH]c3ccccc23)cc1`: the half-maximal activity concentration (AC50) under setting [1] is 25.1 µM [falling, partial curve].
As to `CCCCn1nc(NC(=O)c2cccs2)c2cc3cc(OC)ccc3nc21`, the concentration at half-maximal activity (AC50) under setting [1] is 5.01 µM [falling, full curve].
With `COc1cccc(NC(=O)c2ccc(-c3nc(COc4ccc(C)cc4)c(C)o3)cc2)c1`, under setting [1], the half-maximal activity concentration (AC50) is 1.26 µM [falling, full curve, poor fit].
Regarding `O=C(Nc1ccc(N2CCN(C(=O)c3ccccc3)CC2)c(Cl)c1)c1ccco1`, the half-maximal activity concentration (AC50) (measured here: IkB-luc green channel) is 12.6 µM [falling, partial curve] and the concentration at half-maximal activity (AC50) (measured here: control luc red channel) is 25.1 µM [falling, partial curve].
Regarding `Nc1nc2ccccc2n1/N=C/c1ccc(-c2ccccc2)o1`, the AC50 under setting [1] was 6.31 µM [falling, partial curve].
Turning to `Cc1ccc2c(c1)c1c(c(=O)n(-c3ccccc3C)c(=O)n1CC(=O)NCC1CCCO1)n2C` (centres undefined), under setting [1], the AC50 is 3.16 µM [falling, full curve].
Consider `Cc1cc(=O)n2nc(N3CCC(C(=O)Nc4ccc(Br)cc4F)CC3)sc2n1`, for which the AC50 under setting [1] was 12.6 µM [falling, partial curve].
For `O=C(CNC(=O)c1ccc(Cl)cc1)OCc1cc(=O)n2nc(C3CCCCC3)sc2n1`, under setting [1], the AC50 was 2.51 µM [rising, partial curve, poor fit].
In the case of `CCOC(=O)c1cccc(NC(=O)c2cc3cc4ccc(C)cc4nc3s2)c1`, under setting [1], the AC50 was 0.0316 µM [falling, full curve, poor fit].
Regarding `Cc1cccc(NC(=O)Cn2c(=O)n(CCC(=O)N3CCc4ccccc4C3)c(=O)c3ccccc32)c1`, under setting [1], the half-maximal activity concentration (AC50) was 5.01 µM [falling, full curve].
Same read-out and setting: under `O=C(CCN1CCC(c2ccccc2)C1)c1cccs1` (centres undefined) stands 15.8 µM [falling, partial curve]; under `Nc1c(C(=O)NCc2ccccc2)nnn1Cc1cccc(Br)c1`, 1.58 µM [rising, full curve].
As for `CCOC(=O)c1cc(-c2ccc(F)cc2)n(CCC(=O)NC2CCCCC2)c1C`, the half-maximal activity concentration (AC50) under setting [1] was 25.1 µM [falling, single point].
Regarding `CCCCCCCNS(=O)(=O)c1cccc2c(Cl)cccc12`, the AC50 under setting [1] is 39.8 µM [falling, partial curve].
In the case of `CCOc1ccc(NC(=O)NCCN2CCN(c3ccccc3F)CC2)cc1`, under setting [1], the AC50 is 39.8 µM [falling, partial curve, poor fit].
The same measure, in the same setting: under `O=S(=O)(NCc1ccc(Cl)cc1)c1ccc(N2CCCCS2(=O)=O)cc1` stands 0.00631 µM [rising, full curve, poor fit].
The same measure, in the same setting: the value for `COC(=O)c1ccccc1NC(=O)CN1C(=O)COc2ccccc21` was 12.6 µM [falling, partial curve].
On to `CCOC(=O)Nc1cccc(OCC(=O)Nc2ccccc2OC)c1`, for which the AC50 under setting [1] was 31.6 µM [falling, single point].
The same measure, in the same setting: the value for `CCOc1cc(C(=O)Nc2c(NC)c3ccccc3oc2=O)cc(OCC)c1OCC` was 7.94 µM [falling, partial curve]; that for `Cc1ccc(C)c(CN2C(=O)c3ccccc3Sc3ccc(C(=O)NC4CCCC4)cc32)c1` was 1.58 µM [falling, full curve]; that for `COc1ccc(NC(=O)c2c(C)oc3ccc(O)c(CN4CCCC(C)C4)c23)cc1Cl` (centres undefined) was 20 µM [falling, partial curve].
Still for that read-out and setting: under `COc1ccccc1-c1cn(S(=O)(=O)c2ccc(C)cc2)nc1N` stands 10 µM [falling, partial curve].
Same read-out and setting: the value for `Cc1ccc(N2CCN(C(=O)CCc3c(C)nc4ncnn4c3C)CC2)c(C)c1` was 31.6 µM [falling, partial curve].
On to `Cc1cc(C)c(C#N)c(SCC(=O)Nc2ccccc2C#N)n1`, for which the AC50 under setting [1] is 15.8 µM [falling, partial curve].
On the same count and under the same terms, under `CCS(=O)(=O)c1ncc(Cl)c(C(=O)N(Cc2ccccc2)Cc2ccco2)n1` stands 5.01 µM [falling, partial curve].
Still for that read-out and setting: under `CCn1cc(C(=O)NCCc2ccc(OC)c(OC)c2)c(=O)c2cc(S(=O)(=O)N3CCc4ccccc4C3)ccc21` stands 1.26 µM [rising, full curve].
In the case of `COc1cccc(CNC(=O)CSc2ncc(S(=O)(=O)c3ccc(C)c(Cl)c3)c(=O)[nH]2)c1`, the AC50 under setting [1] is 1.26 µM [falling, partial curve].
With `N#Cc1ccccc1CSc1nnc(-c2ccccc2)o1`, the AC50 under setting [1] is 0.126 µM [rising, full curve].
For the compound `COc1ccc(N2CCN(C(CNS(=O)(=O)c3c(C)cc(C)cc3C)c3ccco3)CC2)cc1` (centres undefined), the AC50 under setting [1] was 39.8 µM [falling, single point].
For the compound `Cc1ccn2c(Nc3ccc4c(c3)OCO4)c(-c3ccco3)nc2c1`, under setting [1], the concentration at half-maximal activity (AC50) is 39.8 µM [falling, single point].
Turning to `CCc1cccc(C)c1NC(=O)Nc1csc2c1CCCC2`, the AC50 under setting [1] was 3.16 µM [rising, single point].
Take `COc1ccc2sc(N(Cc3cccnc3)C(=O)c3ccco3)nc2c1`: the concentration at half-maximal activity (AC50) under setting [1] was 2.51 µM [rising, single point].
Regarding `Cc1ccc(C)c(NC(=O)CSc2nncn3c2cc2sccc23)c1`, under setting [1], the half-maximal activity concentration (AC50) is 12.6 µM [falling, partial curve].
In the case of `O=C1CN(C(=O)c2ccccc2)C(c2ccc(F)cc2)c2cc(Br)ccc2N1` (centres undefined), the AC50 under setting [1] is 3.16 µM [falling, partial curve].
Consider `COc1ccc(CN2C(=O)N(c3ccc(F)cc3)C(=O)C2CC(=O)Nc2ccccc2)cc1` (centres undefined), for which the half-maximal activity concentration (AC50) under setting [1] is 0.501 µM [rising, partial curve].
For `CCOc1ccc(N2CC(c3nc4ccccc4n3CCC3CCCCC3)CC2=O)cc1` (centres undefined), the AC50 under setting [1] was 31.6 µM [falling, single point].
Consider `CCCNC(=O)C1CCN(c2cc(C)nc3c(-c4ccc(OC)c(OC)c4)c(C)nn23)CC1`, for which, under setting [1], the AC50 is 12.6 µM [falling, partial curve].
Still for that read-out and setting: the value for `Cc1ccc(CCNc2nc3ccccc3c3nc(-c4ccccc4)nn23)cc1` was 15.8 µM [falling, partial curve]; that for `COC(=O)c1cc(NC(=O)Cn2ncc3c2-c2ccccc2OC3)cc(C(=O)OC)c1` was 39.8 µM [falling, single point].
Still for that read-out and setting: the value for `Cc1cccc(CS(=O)(=O)CC2Nc3ccc(C(=O)NCc4ccccc4Cl)cc3NC2=O)c1` (centres undefined) was 15.8 µM [falling, partial curve].

These data come from PubChem BioAssay AID445 (National Center for Advancing Translational Sciences (NCATS), 2006).
